# Drug screen on melanoma cell lines: apoptosis marker

Data from the primary screen of doi:10.1371/journal.pone.0140310, rounded.

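Human melanoma cell lines in 1,536-well plates were treated with a pair of drugs for 72 h, then fixed, stained and imaged. Values are the share of nuclei positive for cleaved PARP as a percentage of the same share in the DMSO control: 100 is the control level, higher means more apoptosis. Every drug was used at one fixed concentration, the higher of two screened. No replicate spread is given; individual values may be noisy. The marker varies much from line to line, for technical or biological reasons.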 An unselected part of the screen is shown. An entry leaves out what has no value listed here.

Compounds and concentrations:
L-779450: Oc1cc(-c2nc(-c3ccccc3)[nH]c2-c2ccncc2)ccc1Cl at 1 µM
stibogluconate: O=C(O)[C@@H]1[O][Sb](=[O])([O][Sb]2(=[O])[O][C@H]([C@H](O)CO)[C@H](O)[C@H](C(=O)O)[O]2)[O][C@H]([C@H](O)CO)[C@@H]1O (stereo partly shown) at 10 µM
LFM-A13: C/C(O)=C(\C#N)C(=O)Nc1cc(Br)ccc1Br at 10 µM
PLX4720: CCCS(=O)(=O)Nc1ccc(F)c(C(=O)c2c[nH]c3ncc(Cl)cc23)c1F at 0.4 µM
dorsomorphin: c1cc(-c2cnn3cc(-c4ccc(OCCN5CCCCC5)cc4)cnc23)ccn1 at 2 µM
ZM336372: Cc1ccc(NC(=O)c2cccc(N(C)C)c2)cc1NC(=O)c1ccc(O)cc1 at 10 µM
pioglitazone: CCc1ccc(CCOc2ccc(CC3SC(=O)NC3=O)cc2)nc1 (stereo not shown) at 10 µM
dasatinib: Cc1nc(Nc2ncc(C(=O)Nc3c(C)cccc3Cl)s2)cc(N2CCN(CCO)CC2)n1 at 0.02 µM
PF-562271: CN(c1ncccc1CNc1nc(Nc2ccc3c(c2)CC(=O)N3)ncc1C(F)(F)F)S(C)(=O)=O at 0.4 µM
KU-55933: O=c1cc(-c2cccc3c2Sc2ccccc2S3)oc(N2CCOCC2)c1 at 5 µM

Drugs: dorsomorphin + KU-55933
LB2518-MEL: 143
COLO 800: 120
COLO 829: 68.9
WM115: 76.5
SK-MEL-5: 136

Drugs: stibogluconate + PF-562271
LB2518-MEL: 58.4
COLO 800: 217
COLO 829: 139
WM115: 68.0
SK-MEL-5: 152

Drugs: dasatinib + LFM-A13
LB2518-MEL: 56.0
COLO 800: 52.1
COLO 829: 126
WM115: 453
SK-MEL-5: 214

Drugs: ZM336372 + PF-562271
LB2518-MEL: 133
COLO 800: 119
COLO 829: 155
WM115: 344
SK-MEL-5: 137

Drugs: pioglitazone + stibogluconate
LB2518-MEL: 135
COLO 800: 82.6
COLO 829: 70.2
WM115: 35.6
SK-MEL-5: 89.0

Drugs: PF-562271 + dorsomorphin
LB2518-MEL: 94.0
COLO 800: 89.0
COLO 829: 92.0
WM115: 183
SK-MEL-5: 83.2

Drugs: L-779450 + ZM336372
COLO 800: 96.3
COLO 829: 140
WM115: 98.5
SK-MEL-5: 60.2

Drugs: PLX4720 + PF-562271
LB2518-MEL: 155
COLO 800: 60.3
COLO 829: 84.6
WM115: 226
SK-MEL-5: 175

Drugs: KU-55933 + dasatinib
LB2518-MEL: 74.4
COLO 800: 84.4
COLO 829: 197
WM115: 165
SK-MEL-5: 241

Drugs: dasatinib + ZM336372
LB2518-MEL: 226
COLO 800: 123
COLO 829: 104
WM115: 241
SK-MEL-5: 40.5

Drugs: stibogluconate + dorsomorphin
LB2518-MEL: 55.0
COLO 800: 73.5
COLO 829: 110
WM115: 107
SK-MEL-5: 122

Drugs: PF-562271 + LFM-A13
LB2518-MEL: 79.2
COLO 800: 165
COLO 829: 183
WM115: 189
SK-MEL-5: 166

Drugs: dorsomorphin + LFM-A13
LB2518-MEL: 104
COLO 800: 85.3
COLO 829: 45.3
WM115: 141
SK-MEL-5: 173

Drugs: KU-55933 + PF-562271
LB2518-MEL: 73.7
COLO 800: 127
COLO 829: 83.8
WM115: 40.8
SK-MEL-5: 182

Drugs: pioglitazone + PLX4720
LB2518-MEL: 97.8
COLO 800: 42.6
COLO 829: 129
WM115: 110
SK-MEL-5: 161

Drugs: ZM336372 + stibogluconate
LB2518-MEL: 96.5
COLO 800: 81.1
COLO 829: 123
WM115: 242
SK-MEL-5: 130

Drugs: dorsomorphin + ZM336372
LB2518-MEL: 158
COLO 800: 36.9
COLO 829: 182
WM115: 53.7
SK-MEL-5: 124

Drugs: ZM336372 + pioglitazone
LB2518-MEL: 124
COLO 800: 157
COLO 829: 173
WM115: 91.6
SK-MEL-5: 134

Drugs: pioglitazone + LFM-A13
LB2518-MEL: 75.8
COLO 800: 62.7
COLO 829: 72.2
WM115: 178
SK-MEL-5: 35.9

Drugs: PLX4720 + KU-55933
LB2518-MEL: 136
COLO 800: 93.1
COLO 829: 139
WM115: 401
SK-MEL-5: 130

Drugs: pioglitazone + dasatinib
LB2518-MEL: 152
COLO 800: 83.9
COLO 829: 76.1
WM115: 200
SK-MEL-5: 79.6

Drugs: stibogluconate + PLX4720
LB2518-MEL: 140
COLO 800: 45.4
COLO 829: 220
WM115: 121
SK-MEL-5: 250

Drugs: pioglitazone + dorsomorphin
LB2518-MEL: 71.2
COLO 800: 68.8
COLO 829: 31.6
WM115: 126
SK-MEL-5: 108

Drugs: stibogluconate + KU-55933
LB2518-MEL: 74.5
COLO 800: 76.4
COLO 829: 94.1
WM115: 268
SK-MEL-5: 142

Drugs: LFM-A13 + KU-55933
LB2518-MEL: 84.2
COLO 800: 129
COLO 829: 69.0
WM115: 94.3
SK-MEL-5: 101

Drugs: L-779450 + LFM-A13
LB2518-MEL: 31.8
COLO 800: 106
COLO 829: 91.3
WM115: 101
SK-MEL-5: 180

Drugs: PLX4720 + dasatinib
LB2518-MEL: 69.2
COLO 800: 262
COLO 829: 228
WM115: 557
SK-MEL-5: 147

Drugs: PF-562271 + dasatinib
LB2518-MEL: 83.6
COLO 800: 152
COLO 829: 210
WM115: 604
SK-MEL-5: 85.6

Drugs: dasatinib + dorsomorphin
LB2518-MEL: 142
COLO 800: 392
COLO 829: 226
WM115: 153
SK-MEL-5: 159

Drugs: PLX4720 + ZM336372
LB2518-MEL: 180
COLO 800: 164
COLO 829: 117
WM115: 125
SK-MEL-5: 57.5

Drugs: KU-55933 + pioglitazone
LB2518-MEL: 58.5
COLO 800: 66.6
COLO 829: 156
WM115: 69.4
SK-MEL-5: 155

Drugs: L-779450 + dorsomorphin
LB2518-MEL: 90.9
COLO 800: 104
COLO 829: 154
WM115: 157
SK-MEL-5: 346

Drugs: LFM-A13 + stibogluconate
LB2518-MEL: 46.6
COLO 800: 41.0
COLO 829: 173
WM115: 248
SK-MEL-5: 53.6

Drugs: dasatinib + L-779450
LB2518-MEL: 77.4
COLO 800: 263
COLO 829: 109
WM115: 325
SK-MEL-5: 124

Drugs: LFM-A13 + PLX4720
LB2518-MEL: 98.3
COLO 800: 187
COLO 829: 207
WM115: 27.6
SK-MEL-5: 179

Drugs: stibogluconate + L-779450
LB2518-MEL: 139
COLO 800: 114
COLO 829: 158
WM115: 214
SK-MEL-5: 186

Drugs: ZM336372 + KU-55933
LB2518-MEL: 239
COLO 800: 328
COLO 829: 313
WM115: 99.6
SK-MEL-5: 35.7

Drugs: dorsomorphin + PLX4720
LB2518-MEL: 89.7
COLO 800: 96.4
COLO 829: 73.6
WM115: 122
SK-MEL-5: 208

Drugs: PLX4720 + L-779450
LB2518-MEL: 151
COLO 800: 73.8
COLO 829: 188
WM115: 287
SK-MEL-5: 97.9

Drugs: pioglitazone + PF-562271
LB2518-MEL: 57.7
COLO 800: 57.3
COLO 829: 134
WM115: 54.8
SK-MEL-5: 48.2